The source of these data is patent EP4790144A1.

The chains behind the UniProt entries cited, without tags or fusion partners. Where a name states a change or a piece, a line headed by the entry shows the natural chain unless it says otherwise.
UniProt P33897: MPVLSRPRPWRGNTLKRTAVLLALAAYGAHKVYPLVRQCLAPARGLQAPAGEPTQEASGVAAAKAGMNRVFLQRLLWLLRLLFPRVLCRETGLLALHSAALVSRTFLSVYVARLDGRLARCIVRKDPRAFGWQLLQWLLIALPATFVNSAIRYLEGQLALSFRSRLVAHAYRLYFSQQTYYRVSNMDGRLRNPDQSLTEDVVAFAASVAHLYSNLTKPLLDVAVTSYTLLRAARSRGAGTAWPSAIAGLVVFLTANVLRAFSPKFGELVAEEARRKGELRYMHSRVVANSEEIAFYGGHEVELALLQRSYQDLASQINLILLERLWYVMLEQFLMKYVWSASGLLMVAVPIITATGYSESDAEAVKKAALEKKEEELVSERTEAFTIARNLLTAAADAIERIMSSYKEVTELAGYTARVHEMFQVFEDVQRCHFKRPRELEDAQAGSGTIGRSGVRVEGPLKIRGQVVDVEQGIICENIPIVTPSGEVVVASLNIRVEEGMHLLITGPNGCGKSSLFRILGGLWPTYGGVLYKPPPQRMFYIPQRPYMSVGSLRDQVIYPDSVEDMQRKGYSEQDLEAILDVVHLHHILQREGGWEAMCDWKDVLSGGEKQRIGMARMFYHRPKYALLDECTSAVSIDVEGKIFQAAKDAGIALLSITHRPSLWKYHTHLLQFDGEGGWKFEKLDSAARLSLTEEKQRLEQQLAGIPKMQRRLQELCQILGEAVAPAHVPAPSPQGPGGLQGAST

These are yes or no findings as the source states them, for the method shown. Some results given as binding are weak or reduced against the parent protein; the word gives no strength.

The test has as its target 2023-601 project-ABCD1 protein (human) (UniProt P33897). In words: ELISA, ABCD1 protein coated at 2 ug/mL, HRP goat anti-mouse secondary antibody.

B1: 07PC44 (antibody, V domains shown)
VH: QVQLQQSGPELVKPGASVKMSCKASGYTFTDYVISWVKQRTGQGLEWIGEIYPGSGSTYYNEKFKGKATLTADKSSNTAYMQLSSLTSEDSAVYFCARSYDYDGLAWFAYWGQGTLVTVSA
VL: DIVMTQAAPSVPVTPGESVSISCRSSKSLLHSNGNTYLYWFLQRPGQSPQLLIYRMSNLASGVPDRFSGSGSGTAFTLRISRVEAEDVGVYYCMQHLEYPLTFGSGTKLEIK
Turning to B1, the binding entry is “binds”.
